Laboratory results as given in the supplement of paper PMC12823440, “Inhibitors supercharge kinase turnover through native proteolytic circuits” (Nature, 2025).
Where a name gives a salt, the structure may show the parent alone. Some of the results follow. Hit calls seldom repeat between salt and free forms of one compound.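 Kinases, fused to nanoluciferase, were expressed in K562 cells; luminescence was measured every 4 h from 2 to 18 h as percent of control (DMSO = 100%, positive control = 0%). A time point is decreased if signal falls significantly (2 sigma). Hits were called by the authors by a rule that is not shown; the count of time points alone does not decide it.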

Chains of the proteins cited; added tags and fusions are not shown. Lines headed by an entry give the natural chain unless they say otherwise; changes in a name come on top.
UniProt P29317, whole entry: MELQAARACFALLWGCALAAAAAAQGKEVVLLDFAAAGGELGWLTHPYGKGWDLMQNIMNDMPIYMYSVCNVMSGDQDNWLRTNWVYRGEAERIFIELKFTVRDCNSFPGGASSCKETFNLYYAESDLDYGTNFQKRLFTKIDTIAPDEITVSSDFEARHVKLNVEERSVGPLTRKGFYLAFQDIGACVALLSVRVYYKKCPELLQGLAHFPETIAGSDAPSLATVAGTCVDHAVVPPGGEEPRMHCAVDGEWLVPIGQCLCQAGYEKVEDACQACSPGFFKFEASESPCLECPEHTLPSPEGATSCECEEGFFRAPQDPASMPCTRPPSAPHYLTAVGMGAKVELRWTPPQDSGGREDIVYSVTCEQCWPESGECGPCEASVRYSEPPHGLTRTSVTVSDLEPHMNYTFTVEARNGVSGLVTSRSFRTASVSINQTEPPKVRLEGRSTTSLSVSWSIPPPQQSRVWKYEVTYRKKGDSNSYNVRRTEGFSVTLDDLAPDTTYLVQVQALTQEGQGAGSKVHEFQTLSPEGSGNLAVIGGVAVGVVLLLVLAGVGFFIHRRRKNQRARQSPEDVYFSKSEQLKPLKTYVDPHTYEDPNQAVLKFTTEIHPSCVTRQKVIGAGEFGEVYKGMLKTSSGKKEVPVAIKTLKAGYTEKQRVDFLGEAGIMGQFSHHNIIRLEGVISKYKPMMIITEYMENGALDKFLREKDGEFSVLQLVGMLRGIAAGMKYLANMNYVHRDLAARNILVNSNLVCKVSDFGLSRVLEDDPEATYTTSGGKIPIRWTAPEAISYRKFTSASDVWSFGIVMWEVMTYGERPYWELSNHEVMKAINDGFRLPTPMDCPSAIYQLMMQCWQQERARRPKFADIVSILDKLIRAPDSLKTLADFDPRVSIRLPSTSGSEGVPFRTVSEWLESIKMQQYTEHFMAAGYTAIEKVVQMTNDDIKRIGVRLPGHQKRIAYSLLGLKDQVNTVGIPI
UniProt P21860, whole entry: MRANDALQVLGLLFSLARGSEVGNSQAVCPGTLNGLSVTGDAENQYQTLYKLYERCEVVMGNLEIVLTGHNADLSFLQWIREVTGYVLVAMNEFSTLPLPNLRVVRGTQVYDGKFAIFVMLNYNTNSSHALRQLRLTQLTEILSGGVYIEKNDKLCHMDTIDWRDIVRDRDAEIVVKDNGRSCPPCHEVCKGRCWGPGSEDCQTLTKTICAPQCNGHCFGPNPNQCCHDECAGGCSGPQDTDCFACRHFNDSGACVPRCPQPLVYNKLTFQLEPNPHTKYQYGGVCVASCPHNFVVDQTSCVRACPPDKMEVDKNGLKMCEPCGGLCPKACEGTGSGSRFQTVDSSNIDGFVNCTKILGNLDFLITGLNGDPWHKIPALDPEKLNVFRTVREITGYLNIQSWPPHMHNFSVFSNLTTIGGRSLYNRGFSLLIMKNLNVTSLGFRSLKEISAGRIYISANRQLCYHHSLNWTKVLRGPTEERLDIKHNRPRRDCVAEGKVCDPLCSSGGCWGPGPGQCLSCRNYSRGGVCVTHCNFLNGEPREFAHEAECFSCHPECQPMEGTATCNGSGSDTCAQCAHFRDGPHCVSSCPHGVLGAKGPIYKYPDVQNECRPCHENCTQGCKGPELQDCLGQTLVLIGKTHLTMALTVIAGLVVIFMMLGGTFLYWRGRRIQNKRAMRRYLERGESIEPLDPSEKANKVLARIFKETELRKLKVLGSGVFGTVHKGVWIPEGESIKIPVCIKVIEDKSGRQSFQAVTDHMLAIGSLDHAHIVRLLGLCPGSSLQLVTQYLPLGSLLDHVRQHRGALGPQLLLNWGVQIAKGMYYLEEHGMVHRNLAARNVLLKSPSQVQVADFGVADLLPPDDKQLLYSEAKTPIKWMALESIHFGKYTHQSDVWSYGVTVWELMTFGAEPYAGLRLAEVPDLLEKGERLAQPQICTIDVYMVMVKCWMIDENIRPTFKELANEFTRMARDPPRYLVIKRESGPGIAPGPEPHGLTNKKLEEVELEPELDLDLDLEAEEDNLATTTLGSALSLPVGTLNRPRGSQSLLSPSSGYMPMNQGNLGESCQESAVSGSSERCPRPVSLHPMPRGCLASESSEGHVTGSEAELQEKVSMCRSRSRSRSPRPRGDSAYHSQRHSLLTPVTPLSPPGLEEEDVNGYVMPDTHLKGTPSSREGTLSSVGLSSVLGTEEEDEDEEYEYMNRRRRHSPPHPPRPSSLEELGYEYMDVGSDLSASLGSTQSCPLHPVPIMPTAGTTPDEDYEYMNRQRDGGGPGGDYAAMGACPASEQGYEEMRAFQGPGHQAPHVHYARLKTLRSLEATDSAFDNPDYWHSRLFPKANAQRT
UniProt Q15303, whole entry R711C: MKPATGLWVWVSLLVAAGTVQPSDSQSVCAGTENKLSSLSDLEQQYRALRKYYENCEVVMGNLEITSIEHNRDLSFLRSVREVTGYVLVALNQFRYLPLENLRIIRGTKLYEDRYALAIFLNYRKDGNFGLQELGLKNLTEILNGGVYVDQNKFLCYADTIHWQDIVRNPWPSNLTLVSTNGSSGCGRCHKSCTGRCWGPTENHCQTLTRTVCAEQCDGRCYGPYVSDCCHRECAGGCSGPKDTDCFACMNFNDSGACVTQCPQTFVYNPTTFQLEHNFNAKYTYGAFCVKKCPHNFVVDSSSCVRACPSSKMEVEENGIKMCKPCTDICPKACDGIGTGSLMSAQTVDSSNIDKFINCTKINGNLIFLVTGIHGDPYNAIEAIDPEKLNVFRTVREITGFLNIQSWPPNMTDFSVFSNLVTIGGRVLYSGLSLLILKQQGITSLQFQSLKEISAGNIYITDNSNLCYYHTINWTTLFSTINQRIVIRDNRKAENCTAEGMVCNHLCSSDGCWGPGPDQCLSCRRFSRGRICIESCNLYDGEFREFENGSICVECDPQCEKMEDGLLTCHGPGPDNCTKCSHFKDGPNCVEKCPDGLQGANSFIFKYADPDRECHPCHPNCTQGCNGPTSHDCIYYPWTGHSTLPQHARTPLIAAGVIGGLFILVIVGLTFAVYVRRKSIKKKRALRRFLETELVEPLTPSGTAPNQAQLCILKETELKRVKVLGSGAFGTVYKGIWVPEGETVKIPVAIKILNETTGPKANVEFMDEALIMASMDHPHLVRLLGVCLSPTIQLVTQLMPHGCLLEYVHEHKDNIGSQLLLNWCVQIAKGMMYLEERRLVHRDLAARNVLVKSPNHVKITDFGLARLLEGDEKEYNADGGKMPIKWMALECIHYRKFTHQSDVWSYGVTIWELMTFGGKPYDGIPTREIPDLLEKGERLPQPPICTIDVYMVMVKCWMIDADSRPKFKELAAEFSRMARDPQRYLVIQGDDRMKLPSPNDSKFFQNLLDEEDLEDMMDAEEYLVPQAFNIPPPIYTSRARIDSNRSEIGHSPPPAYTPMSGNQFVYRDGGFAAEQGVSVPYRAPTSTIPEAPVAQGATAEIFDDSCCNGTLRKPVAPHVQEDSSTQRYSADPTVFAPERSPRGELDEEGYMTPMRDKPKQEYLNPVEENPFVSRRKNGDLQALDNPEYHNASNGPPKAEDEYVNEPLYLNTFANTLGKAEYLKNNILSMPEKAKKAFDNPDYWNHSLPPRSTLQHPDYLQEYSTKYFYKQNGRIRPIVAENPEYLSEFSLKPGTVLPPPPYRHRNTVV
UniProt O75460: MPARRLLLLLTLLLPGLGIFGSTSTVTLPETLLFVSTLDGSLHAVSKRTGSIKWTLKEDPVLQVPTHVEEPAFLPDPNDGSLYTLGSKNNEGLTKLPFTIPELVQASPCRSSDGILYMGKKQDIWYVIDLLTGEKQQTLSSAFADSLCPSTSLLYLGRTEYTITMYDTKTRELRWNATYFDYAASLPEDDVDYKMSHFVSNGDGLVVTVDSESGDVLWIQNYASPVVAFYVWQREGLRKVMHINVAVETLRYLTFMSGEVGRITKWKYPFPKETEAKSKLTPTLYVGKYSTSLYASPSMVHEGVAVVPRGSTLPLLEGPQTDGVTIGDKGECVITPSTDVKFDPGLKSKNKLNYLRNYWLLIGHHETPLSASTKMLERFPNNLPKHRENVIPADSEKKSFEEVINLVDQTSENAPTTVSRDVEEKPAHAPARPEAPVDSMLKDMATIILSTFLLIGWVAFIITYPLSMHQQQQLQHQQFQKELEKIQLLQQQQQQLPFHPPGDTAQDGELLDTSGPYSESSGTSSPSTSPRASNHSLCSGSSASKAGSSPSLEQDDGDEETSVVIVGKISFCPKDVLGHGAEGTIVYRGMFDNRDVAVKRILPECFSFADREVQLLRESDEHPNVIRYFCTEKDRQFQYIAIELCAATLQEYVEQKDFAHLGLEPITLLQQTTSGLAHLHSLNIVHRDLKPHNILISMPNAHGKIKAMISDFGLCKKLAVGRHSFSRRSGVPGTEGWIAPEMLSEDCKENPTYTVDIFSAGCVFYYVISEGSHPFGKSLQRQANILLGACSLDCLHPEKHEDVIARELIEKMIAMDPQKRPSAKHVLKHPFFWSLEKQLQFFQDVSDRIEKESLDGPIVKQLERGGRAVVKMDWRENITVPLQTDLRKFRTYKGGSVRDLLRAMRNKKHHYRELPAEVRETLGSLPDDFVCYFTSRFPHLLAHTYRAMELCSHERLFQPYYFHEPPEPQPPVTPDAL
UniProt P36888, whole entry: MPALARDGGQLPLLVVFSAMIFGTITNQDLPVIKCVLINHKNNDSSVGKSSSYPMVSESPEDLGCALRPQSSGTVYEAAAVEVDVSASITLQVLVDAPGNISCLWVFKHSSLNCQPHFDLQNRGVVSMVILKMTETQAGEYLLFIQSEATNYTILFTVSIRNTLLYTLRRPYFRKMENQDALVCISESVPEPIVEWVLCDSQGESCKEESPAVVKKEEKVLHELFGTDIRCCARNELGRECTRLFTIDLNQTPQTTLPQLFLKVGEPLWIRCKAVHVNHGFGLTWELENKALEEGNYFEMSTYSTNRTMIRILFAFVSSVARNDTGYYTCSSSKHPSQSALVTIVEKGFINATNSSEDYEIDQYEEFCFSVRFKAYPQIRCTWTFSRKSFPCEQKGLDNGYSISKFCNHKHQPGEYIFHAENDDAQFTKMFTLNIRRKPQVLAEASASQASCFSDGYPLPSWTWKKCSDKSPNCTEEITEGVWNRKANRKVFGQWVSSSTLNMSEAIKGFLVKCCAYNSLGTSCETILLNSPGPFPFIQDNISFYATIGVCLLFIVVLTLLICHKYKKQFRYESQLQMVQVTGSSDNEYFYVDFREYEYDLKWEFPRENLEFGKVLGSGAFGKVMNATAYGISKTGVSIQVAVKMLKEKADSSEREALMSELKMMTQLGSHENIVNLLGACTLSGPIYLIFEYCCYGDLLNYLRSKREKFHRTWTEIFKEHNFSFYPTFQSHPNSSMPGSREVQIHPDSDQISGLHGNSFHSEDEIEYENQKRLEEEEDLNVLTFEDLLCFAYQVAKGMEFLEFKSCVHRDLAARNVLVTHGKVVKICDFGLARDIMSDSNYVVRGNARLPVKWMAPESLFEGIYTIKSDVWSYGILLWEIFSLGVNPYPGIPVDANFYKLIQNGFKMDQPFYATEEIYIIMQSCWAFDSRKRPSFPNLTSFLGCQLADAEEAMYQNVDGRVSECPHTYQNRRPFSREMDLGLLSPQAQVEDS
UniProt P49840: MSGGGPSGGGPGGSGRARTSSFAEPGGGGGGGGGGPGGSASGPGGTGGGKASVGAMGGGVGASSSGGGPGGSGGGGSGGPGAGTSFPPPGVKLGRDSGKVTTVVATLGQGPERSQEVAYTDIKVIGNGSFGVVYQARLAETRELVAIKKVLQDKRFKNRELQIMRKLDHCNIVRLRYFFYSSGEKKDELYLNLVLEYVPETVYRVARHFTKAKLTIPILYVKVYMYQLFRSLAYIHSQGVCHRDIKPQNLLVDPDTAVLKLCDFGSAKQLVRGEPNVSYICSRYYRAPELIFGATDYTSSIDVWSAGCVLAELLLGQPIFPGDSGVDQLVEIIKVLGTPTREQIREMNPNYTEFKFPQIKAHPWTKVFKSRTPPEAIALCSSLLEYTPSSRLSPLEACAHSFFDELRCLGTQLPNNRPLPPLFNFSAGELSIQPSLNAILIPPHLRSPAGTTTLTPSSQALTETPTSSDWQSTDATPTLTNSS

How the values were obtained:
Experiment in all cases: kinase-Nluc reporter destabilization hit call (1 = scored as downregulated) (binary); higher = compound decreases kinase abundance
Details in all cases: K562; 2-18 h
EGFR = EGFR (UniProt P00533)
EGFR_G719S = EGFR_G719S (UniProt P00533)
EGFR_G719S_T790M = EGFR_G719S_T790M (UniProt P00533)
EGFR_L718V = EGFR_L718V (UniProt P00533)
EGFR_L858R = EGFR_L858R (UniProt P00533)
EGFR_L861Q = EGFR_L861Q (UniProt P00533)
EGFR_T790M = EGFR_T790M (UniProt P00533)
EPHA2 = EPHA2 (UniProt P29317)
ERBB3 = ERBB3 (UniProt P21860)
[1] = target: ERBB4_R711C (clone: ERBB4_mut) (UniProt Q15303)
ERN1 = ERN1 (UniProt O75460)
FGFR1 = FGFR1 (UniProt P11362)
FGFR2 = FGFR2 (UniProt P21802)
FGFR3 = FGFR3 (UniProt P22607)
FGR = FGR (UniProt P09769)
FLT3 = FLT3 (UniProt P36888)
FYN = FYN (UniProt P06241)
GSK3A = GSK3A (UniProt P49840)
HER2 = HER2 (UniProt P04626)
INSRR = INSRR (UniProt P14616)

Structure (SMILES)	kinase-Nluc reporter destabilization hit call (EGFR)	kinase-Nluc reporter destabilization hit call (EGFR_G719S)	kinase-Nluc reporter destabilization hit call (EGFR_G719S_T790M)	kinase-Nluc reporter destabilization hit call (EGFR_L718V)	kinase-Nluc reporter destabilization hit call (EGFR_L858R)	kinase-Nluc reporter destabilization hit call (EGFR_L861Q)	kinase-Nluc reporter destabilization hit call (EGFR_T790M)	kinase-Nluc reporter destabilization hit call (EPHA2)	kinase-Nluc reporter destabilization hit call (ERBB3)	kinase-Nluc reporter destabilization hit call [1]	kinase-Nluc reporter destabilization hit call (ERN1)	kinase-Nluc reporter destabilization hit call (FGFR1)	kinase-Nluc reporter destabilization hit call (FGFR2)	kinase-Nluc reporter destabilization hit call (FGFR3)	kinase-Nluc reporter destabilization hit call (FGR)	kinase-Nluc reporter destabilization hit call (FLT3)	kinase-Nluc reporter destabilization hit call (FYN)	kinase-Nluc reporter destabilization hit call (GSK3A)	kinase-Nluc reporter destabilization hit call (HER2)	kinase-Nluc reporter destabilization hit call (INSRR)
Nc1nccc(Oc2ccc(NC(=O)c3c[nH]cc(-c4ccc(F)cc4)c3=O)cc2F)c1Cl (10 µM)	inactive: 0	inactive: 0	inactive: 0	inactive: 0	inactive: 0	inactive: 0	inactive: 0	inactive: 0	inactive: 0	inactive: 0	inactive: 0	inactive: 0	inactive: 0	inactive: 0	inactive: 0	inactive: 0	inactive: 0	inactive: 0	active: 1	inactive: 0
N[C@@H](CCC(=O)O)C(=O)N[C@@H](Cc1c[nH]c2ccccc12)C(=O)O [Oglufanide] (10 µM)	inactive: 0	inactive: 0	inactive: 0	inactive: 0	inactive: 0	inactive: 0	inactive: 0	inactive: 0	inactive: 0	inactive: 0	inactive: 0	inactive: 0	inactive: 0	inactive: 0	inactive: 0	inactive: 0	inactive: 0	inactive: 0	inactive: 0	inactive: 0
C=CC(=O)N1C(=O)CC(c2ccc(F)cc2)Sc2ccccc21 (stereo not drawn) [GSK-3β inhibitor 3] (10 µM)	inactive: 0	inactive: 0	inactive: 0	inactive: 0	inactive: 0	inactive: 0	inactive: 0	inactive: 0	inactive: 0	inactive: 0	inactive: 0	inactive: 0	inactive: 0	inactive: 0	inactive: 0	inactive: 0	inactive: 0	inactive: 0	inactive: 0	inactive: 0
Cn1cc(C2=C(c3cccc(N)c3)C(=O)NC2=O)c2ccccc21 (10 µM)	inactive: 0	inactive: 0	inactive: 0	inactive: 0	inactive: 0	inactive: 0	inactive: 0	inactive: 0	inactive: 0	inactive: 0	inactive: 0	inactive: 0	inactive: 0	inactive: 0	inactive: 0	inactive: 0	inactive: 0	inactive: 0	inactive: 0	inactive: 0
CCN(CC)c1cc2oc(=O)c(-c3nc4ccccc4o3)cc2cc1C (2.5 µM)	inactive: 0	inactive: 0	inactive: 0	inactive: 0	inactive: 0	inactive: 0	inactive: 0	inactive: 0	inactive: 0	inactive: 0	inactive: 0	inactive: 0	inactive: 0	inactive: 0	inactive: 0	inactive: 0	inactive: 0	inactive: 0	inactive: 0	inactive: 0
Cc1nc(-c2cnn(C)c2)nc2c1[nH]c1ncc(-c3ccc(N4CCN(C)CC4)cc3)cc12 [GNE 220 (hydrochloride)] (10 µM)	inactive: 0	inactive: 0	inactive: 0	inactive: 0	inactive: 0	inactive: 0	inactive: 0	inactive: 0	inactive: 0	inactive: 0	inactive: 0	inactive: 0	inactive: 0	inactive: 0	inactive: 0	inactive: 0	inactive: 0	inactive: 0	inactive: 0	inactive: 0
Cc1c(-c2ccc(C(N)=O)c3[nH]c4cc(C(C)(C)O)ccc4c23)cccc1-n1cnc2ccccc2c1=O (2.5 µM)	inactive: 0	inactive: 0	inactive: 0	inactive: 0	inactive: 0	inactive: 0	inactive: 0	inactive: 0	inactive: 0	inactive: 0	inactive: 0	inactive: 0	inactive: 0	inactive: 0	inactive: 0	inactive: 0	inactive: 0	inactive: 0	inactive: 0	inactive: 0
COCCNc1cc(NC(=O)N2CCCc3cc(CN4CCN(C)CC4=O)c(C=O)nc32)ncc1C#N [Roblitinib] (10 µM)	inactive: 0	inactive: 0	inactive: 0	inactive: 0	inactive: 0	inactive: 0	inactive: 0	inactive: 0	inactive: 0	inactive: 0	inactive: 0	inactive: 0	inactive: 0	inactive: 0	inactive: 0	inactive: 0	inactive: 0	inactive: 0	inactive: 0	inactive: 0
C[C@H](Nc1ncnc2nc[nH]c12)c1cc2cccc(Cl)c2c(=O)n1-c1ccccc1 [Duvelisib] (10 µM)	inactive: 0	inactive: 0	inactive: 0	inactive: 0	inactive: 0	inactive: 0	inactive: 0	inactive: 0	inactive: 0	inactive: 0	inactive: 0	inactive: 0	inactive: 0	inactive: 0	inactive: 0	inactive: 0	inactive: 0	inactive: 0	inactive: 0	inactive: 0
Cc1cnc(NC2CCOCC2)nc1-n1cnc(C(=O)N[C@H](CN)c2cc(F)cc(Cl)c2)c1 (10 µM)	inactive: 0	inactive: 0	inactive: 0	inactive: 0	inactive: 0	inactive: 0	inactive: 0	inactive: 0	inactive: 0	inactive: 0	inactive: 0	inactive: 0	inactive: 0	inactive: 0	inactive: 0	inactive: 0	inactive: 0	inactive: 0	inactive: 0	inactive: 0
Oc1ccc(/C=C/c2cc(O)cc(O)c2)cc1 [Resveratrol] (10 µM)	inactive: 0	inactive: 0	inactive: 0	inactive: 0	inactive: 0	inactive: 0	inactive: 0	inactive: 0	inactive: 0	inactive: 0	inactive: 0	inactive: 0	inactive: 0	inactive: 0	inactive: 0	inactive: 0	inactive: 0	inactive: 0	inactive: 0	inactive: 0
Cn1cnc([N+](=O)[O-])c1C[N+](C)(C)C/C=C/C(=O)Nc1cc2c(Nc3ccc(Cl)c(Br)c3)ncnc2cn1 [Tarloxotinib (bromide)] (10 µM)	inactive: 0	inactive: 0	inactive: 0	inactive: 0	inactive: 0	inactive: 0	inactive: 0	inactive: 0	inactive: 0	inactive: 0	inactive: 0	inactive: 0	inactive: 0	inactive: 0	inactive: 0	inactive: 0	inactive: 0	inactive: 0	inactive: 0	inactive: 0
Nc1nc(N)c2nc(-c3cccc(O)c3)cnc2n1 (10 µM)	inactive: 0	inactive: 0	inactive: 0	inactive: 0	inactive: 0	inactive: 0	inactive: 0	inactive: 0	inactive: 0	inactive: 0	inactive: 0	inactive: 0	inactive: 0	inactive: 0	inactive: 0	inactive: 0	inactive: 0	inactive: 0	inactive: 0	inactive: 0
O=C(N[C@@H](C1CC1)C(F)(F)F)c1cc(-c2cnn3cc(-c4ccc(F)cc4)cnc23)cs1 (10 µM)	inactive: 0	inactive: 0	inactive: 0	inactive: 0	inactive: 0	inactive: 0	inactive: 0	inactive: 0	inactive: 0	inactive: 0	inactive: 0	inactive: 0	inactive: 0	inactive: 0	inactive: 0	inactive: 0	active: 1	inactive: 0	inactive: 0	inactive: 0
CCc1cccc(CC)c1NC(=O)N1Cc2[nH]nc(NC(=O)c3ccc(N4CCN(C)CC4)cc3)c2C1 (2.5 µM)	inactive: 0	inactive: 0	inactive: 0	inactive: 0	inactive: 0	inactive: 0	inactive: 0	inactive: 0	inactive: 0	inactive: 0	inactive: 0	inactive: 0	inactive: 0	inactive: 0	inactive: 0	inactive: 0	inactive: 0	inactive: 0	inactive: 0	inactive: 0
CC(C)c1cccc(C(C)C)c1N1C(=O)c2ccc(N)cc2C1=O (2.5 µM)	inactive: 0	inactive: 0	inactive: 0	inactive: 0	inactive: 0	inactive: 0	inactive: 0	inactive: 0	inactive: 0	inactive: 0	inactive: 0	inactive: 0	inactive: 0	inactive: 0	inactive: 0	inactive: 0	inactive: 0	inactive: 0	inactive: 0	inactive: 0
O=Nc1c2[nH]c3ccccc3nc-2c2ccccc12 [IQ-1S (free acid)] (2.5 µM)	inactive: 0	inactive: 0	inactive: 0	inactive: 0	inactive: 0	inactive: 0	inactive: 0	inactive: 0	inactive: 0	inactive: 0	inactive: 0	inactive: 0	inactive: 0	inactive: 0	inactive: 0	inactive: 0	inactive: 0	inactive: 0	inactive: 0	inactive: 0
O=c1cc(N2CCOCC2)nc2c3ccccc3ccn12 [Compound 401] (10 µM)	inactive: 0	inactive: 0	inactive: 0	inactive: 0	inactive: 0	inactive: 0	inactive: 0	inactive: 0	inactive: 0	inactive: 0	inactive: 0	inactive: 0	inactive: 0	inactive: 0	inactive: 0	inactive: 0	inactive: 0	inactive: 0	inactive: 0	inactive: 0

Two entries from above in a different format.
Structure (SMILES) | kinase-Nluc reporter destabilization hit call (EGFR) | kinase-Nluc reporter destabilization hit call (EGFR_G719S) | kinase-Nluc reporter destabilization hit call (EGFR_G719S_T790M) | kinase-Nluc reporter destabilization hit call (EGFR_L718V) | kinase-Nluc reporter destabilization hit call (EGFR_L858R) | kinase-Nluc reporter destabilization hit call (EGFR_L861Q) | kinase-Nluc reporter destabilization hit call (EGFR_T790M) | kinase-Nluc reporter destabilization hit call (EPHA2) | kinase-Nluc reporter destabilization hit call (ERBB3) | kinase-Nluc reporter destabilization hit call [1] | kinase-Nluc reporter destabilization hit call (ERN1) | kinase-Nluc reporter destabilization hit call (FGFR1) | kinase-Nluc reporter destabilization hit call (FGFR2) | kinase-Nluc reporter destabilization hit call (FGFR3) | kinase-Nluc reporter destabilization hit call (FGR) | kinase-Nluc reporter destabilization hit call (FLT3) | kinase-Nluc reporter destabilization hit call (FYN) | kinase-Nluc reporter destabilization hit call (GSK3A) | kinase-Nluc reporter destabilization hit call (HER2) | kinase-Nluc reporter destabilization hit call (INSRR)
Nc1nc(N)c2nc(-c3cccc(O)c3)cnc2n1 (10 µM) | inactive: 0 | inactive: 0 | inactive: 0 | inactive: 0 | inactive: 0 | inactive: 0 | inactive: 0 | inactive: 0 | inactive: 0 | inactive: 0 | inactive: 0 | inactive: 0 | inactive: 0 | inactive: 0 | inactive: 0 | inactive: 0 | inactive: 0 | inactive: 0 | inactive: 0 | inactive: 0
O=C(N[C@@H](C1CC1)C(F)(F)F)c1cc(-c2cnn3cc(-c4ccc(F)cc4)cnc23)cs1 (10 µM) | inactive: 0 | inactive: 0 | inactive: 0 | inactive: 0 | inactive: 0 | inactive: 0 | inactive: 0 | inactive: 0 | inactive: 0 | inactive: 0 | inactive: 0 | inactive: 0 | inactive: 0 | inactive: 0 | inactive: 0 | inactive: 0 | active: 1 | inactive: 0 | inactive: 0 | inactive: 0
